Results: PMC11796372
No constants are given. Whether binding was seen depends on the method and setting. For part of these data: A result given as binding can be weak or reduced; the word gives no strength. For part of these data: Sequences can lack the tags named with a protein.

Assays:
[1] = molecular target: T1, H-NS (E. coli chromosomal nucleoid-structuring protein), full-length, low-copy two-hybrid fusion (E. coli (BW25113, K12)) (UniProt P0ACF8); assay: two-hybrid
T1 sequence: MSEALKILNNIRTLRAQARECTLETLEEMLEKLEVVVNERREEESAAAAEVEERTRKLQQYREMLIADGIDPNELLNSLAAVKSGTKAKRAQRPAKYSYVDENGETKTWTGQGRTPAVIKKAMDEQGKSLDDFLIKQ

[2] = molecular target: T2, Hha with the adenylate cyclase fragment fused to its N-terminus (E. coli (BW25113, K12)) (UniProt P0ACE3); assay: two-hybrid
T2 sequence: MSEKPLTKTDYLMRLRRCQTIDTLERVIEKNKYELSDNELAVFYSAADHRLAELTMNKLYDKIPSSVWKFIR

[3] = molecular target: T3, Hha with the adenylate cyclase fragment fused to its C-terminus (E. coli (BW25113, K12)) (UniProt P0ACE3); assay: two-hybrid
T3 sequence: T2 sequence

[4] = molecular target: T4, Cnu (YdgT), paralog of Hha (E. coli (BW25113, K12)) (UniProt P64467); assay: two-hybrid; bacterial two-hybrid (split adenylate cyclase, T18 on high-copy pUT18/pUT18C, T25 on low-copy pKT25/pKNT25) in E. coli BTH101; overnight cultures spotted on LB agar with ampicillin, kanamycin, X-gal and IPTG; 30°C, 24 h or 48 h (pUT18C::hha, pUT18C::cnu); blue spot = interaction
T4 sequence: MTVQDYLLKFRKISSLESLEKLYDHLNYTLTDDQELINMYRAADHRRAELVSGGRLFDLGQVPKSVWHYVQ

[5] = molecular target: T5, H-NS (M1-G85), truncated H-NS lacking its DNA-binding domain (E. coli (BW25113, K12)) (UniProt P0ACF8); assay: as above
T5 sequence: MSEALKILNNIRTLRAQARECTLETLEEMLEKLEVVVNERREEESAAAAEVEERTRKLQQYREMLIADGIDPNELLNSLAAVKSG

[6] = molecular target: T6, StpA (E. coli paralog of H-NS) (E. coli (BW25113, K12)) (UniProt P0ACG1); assay: as above
T6 sequence: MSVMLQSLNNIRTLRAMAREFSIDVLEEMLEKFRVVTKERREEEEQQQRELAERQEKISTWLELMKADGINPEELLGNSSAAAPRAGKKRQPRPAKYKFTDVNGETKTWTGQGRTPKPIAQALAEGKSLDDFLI

[7] = molecular target: T4, Cnu (YdgT), paralog of Hha (E. coli (BW25113, K12)); assay: condition: only Cnu expressed from the low-copy vector (pKT25/pKNT25); two-hybrid; bacterial two-hybrid as above, combination with Cnu on the low-copy vector (pKT25/pKNT25) and Sfx on the high-copy vector (pUT18); 30°C, 24 h

| Substance | binding [1] | binding [2] | binding [3] | binding [4] | binding [5] | binding [6] | binding [7] |
| --- | --- | --- | --- | --- | --- | --- | --- |
| Sfx (H-NS homolog encoded by the IncX2 plasmid R6K), wild type (from UniProt I6RFM1) | binds | binds | binds | binds | binds | binds | no binding |
| Sfx (∆NT), N-terminally truncated variant (∆D3-E8) (plasmid R6K (IncX2)) | – | no binding | no binding | no binding | no binding | no binding | – |
